This is an account of results in article PMC6541591.

Chains of the proteins cited; added tags and fusions are not shown. Residues count along the entry.
UniProt Q9UM73, residues 19-1620: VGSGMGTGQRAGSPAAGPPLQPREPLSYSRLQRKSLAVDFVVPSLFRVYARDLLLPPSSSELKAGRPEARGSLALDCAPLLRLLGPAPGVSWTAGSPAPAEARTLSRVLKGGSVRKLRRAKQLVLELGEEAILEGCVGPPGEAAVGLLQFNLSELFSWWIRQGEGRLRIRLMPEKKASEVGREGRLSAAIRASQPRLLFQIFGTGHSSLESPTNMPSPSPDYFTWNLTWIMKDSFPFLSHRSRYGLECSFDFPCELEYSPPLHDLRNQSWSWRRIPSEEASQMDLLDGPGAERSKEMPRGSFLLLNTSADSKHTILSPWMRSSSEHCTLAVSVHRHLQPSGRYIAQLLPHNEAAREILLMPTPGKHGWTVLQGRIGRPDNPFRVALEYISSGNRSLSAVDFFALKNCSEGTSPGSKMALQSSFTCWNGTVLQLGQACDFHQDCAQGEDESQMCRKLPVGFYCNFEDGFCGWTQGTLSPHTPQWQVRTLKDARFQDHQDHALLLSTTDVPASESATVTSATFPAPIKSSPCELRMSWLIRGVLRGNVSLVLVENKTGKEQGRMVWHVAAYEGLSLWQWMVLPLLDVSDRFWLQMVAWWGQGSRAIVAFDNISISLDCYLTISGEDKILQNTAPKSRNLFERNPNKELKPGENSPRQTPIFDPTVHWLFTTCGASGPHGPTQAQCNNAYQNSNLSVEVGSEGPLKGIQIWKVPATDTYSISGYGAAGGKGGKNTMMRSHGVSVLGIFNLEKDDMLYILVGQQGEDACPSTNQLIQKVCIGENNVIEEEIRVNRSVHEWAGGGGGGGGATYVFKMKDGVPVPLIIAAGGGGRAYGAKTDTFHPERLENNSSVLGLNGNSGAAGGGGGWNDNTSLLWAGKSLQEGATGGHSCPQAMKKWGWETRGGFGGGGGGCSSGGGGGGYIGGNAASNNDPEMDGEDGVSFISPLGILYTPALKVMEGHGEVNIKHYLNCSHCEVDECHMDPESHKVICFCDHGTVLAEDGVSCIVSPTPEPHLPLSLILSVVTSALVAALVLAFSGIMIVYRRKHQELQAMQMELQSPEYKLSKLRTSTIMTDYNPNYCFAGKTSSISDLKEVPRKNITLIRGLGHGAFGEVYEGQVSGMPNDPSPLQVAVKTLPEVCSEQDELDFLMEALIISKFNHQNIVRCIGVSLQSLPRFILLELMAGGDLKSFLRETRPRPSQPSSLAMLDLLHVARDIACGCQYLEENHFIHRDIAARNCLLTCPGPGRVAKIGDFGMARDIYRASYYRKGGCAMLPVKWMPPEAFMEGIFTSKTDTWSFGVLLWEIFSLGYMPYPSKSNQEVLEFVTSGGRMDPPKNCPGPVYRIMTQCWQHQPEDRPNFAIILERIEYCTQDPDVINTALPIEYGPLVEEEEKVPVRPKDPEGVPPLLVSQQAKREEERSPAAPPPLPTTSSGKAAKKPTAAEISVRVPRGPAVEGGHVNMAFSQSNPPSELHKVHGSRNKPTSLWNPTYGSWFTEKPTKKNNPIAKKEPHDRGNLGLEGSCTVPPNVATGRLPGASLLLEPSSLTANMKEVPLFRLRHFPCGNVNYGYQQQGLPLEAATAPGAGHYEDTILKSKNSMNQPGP
UniProt Q8N9U0: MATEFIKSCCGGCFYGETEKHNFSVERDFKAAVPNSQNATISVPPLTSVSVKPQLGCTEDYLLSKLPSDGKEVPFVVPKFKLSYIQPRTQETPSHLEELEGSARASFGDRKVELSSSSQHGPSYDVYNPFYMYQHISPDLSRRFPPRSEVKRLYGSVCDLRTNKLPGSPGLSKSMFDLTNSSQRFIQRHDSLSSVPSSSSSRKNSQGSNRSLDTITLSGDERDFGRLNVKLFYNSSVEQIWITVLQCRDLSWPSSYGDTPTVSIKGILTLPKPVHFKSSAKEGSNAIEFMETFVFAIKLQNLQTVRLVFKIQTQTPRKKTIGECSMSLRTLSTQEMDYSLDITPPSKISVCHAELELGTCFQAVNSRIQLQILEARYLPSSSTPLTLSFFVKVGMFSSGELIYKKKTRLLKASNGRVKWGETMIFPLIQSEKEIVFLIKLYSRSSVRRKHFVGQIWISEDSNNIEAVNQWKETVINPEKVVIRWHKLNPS

For assay [1], the target named is p55γ subunit of PI3K (human (endogenous in MCF7 and MDA-MB-231)) (UniProt Q92569). The experiment in a line: co-IP; competitive co-IP: lysates of stably transfected MCF7 and MDA-MB-231 cells with or without TC2N overexpression, IP with p55γ or ALK antibodies, WB with ALK or p55γ antibodies; normal IgG as negative control.
Assay [2] deals with ALK (human (endogenous in MCF7 and MDA-MB-231)) (UniProt Q9UM73). The experiment in a line: co-IP; co-IP and WB from cell lysates (IP lysis buffer, Pierce Co-Immunoprecipitation Kit); antibody used for this IP not told.
Assay [3] has the same target. The experiment in a line: co-IP; competitive co-IP: lysates of stably transfected MCF7 and MDA-MB-231 cells with or without TC2N overexpression, IP with p55γ or ALK antibodies, WB with ALK or p55γ antibodies; normal IgG as negative control.

Results are given in words; binding and its absence hold for the method and conditions named. In cells and extracts the contact can be indirect. Some entries that bind do so weakly or less than the wild type.

With “ALK (from UniProt Q9UM73 19-1620) (receptor)”, the binding entry in assay [1] is “binds”. As to TC2N (from UniProt Q8N9U0 1-490), in assay [2], the binding result is given as “binds”. “p55γ subunit of PI3K (from UniProt Q92569 1-461)”: in assay [3], the binding result is “binds”.
